Reference: patent publication US20130260455A1
Results are given in words; binding and its absence hold for the method and conditions named. Some results given as binding are weak or reduced against the parent protein; the word gives no strength.

Protein sequences, listed by entry. Tags and fused reporters are not part of them. Lines headed by an entry give the natural chain unless they say otherwise; changes in a name come on top. Residues count along the entry.
UniProt Q04721: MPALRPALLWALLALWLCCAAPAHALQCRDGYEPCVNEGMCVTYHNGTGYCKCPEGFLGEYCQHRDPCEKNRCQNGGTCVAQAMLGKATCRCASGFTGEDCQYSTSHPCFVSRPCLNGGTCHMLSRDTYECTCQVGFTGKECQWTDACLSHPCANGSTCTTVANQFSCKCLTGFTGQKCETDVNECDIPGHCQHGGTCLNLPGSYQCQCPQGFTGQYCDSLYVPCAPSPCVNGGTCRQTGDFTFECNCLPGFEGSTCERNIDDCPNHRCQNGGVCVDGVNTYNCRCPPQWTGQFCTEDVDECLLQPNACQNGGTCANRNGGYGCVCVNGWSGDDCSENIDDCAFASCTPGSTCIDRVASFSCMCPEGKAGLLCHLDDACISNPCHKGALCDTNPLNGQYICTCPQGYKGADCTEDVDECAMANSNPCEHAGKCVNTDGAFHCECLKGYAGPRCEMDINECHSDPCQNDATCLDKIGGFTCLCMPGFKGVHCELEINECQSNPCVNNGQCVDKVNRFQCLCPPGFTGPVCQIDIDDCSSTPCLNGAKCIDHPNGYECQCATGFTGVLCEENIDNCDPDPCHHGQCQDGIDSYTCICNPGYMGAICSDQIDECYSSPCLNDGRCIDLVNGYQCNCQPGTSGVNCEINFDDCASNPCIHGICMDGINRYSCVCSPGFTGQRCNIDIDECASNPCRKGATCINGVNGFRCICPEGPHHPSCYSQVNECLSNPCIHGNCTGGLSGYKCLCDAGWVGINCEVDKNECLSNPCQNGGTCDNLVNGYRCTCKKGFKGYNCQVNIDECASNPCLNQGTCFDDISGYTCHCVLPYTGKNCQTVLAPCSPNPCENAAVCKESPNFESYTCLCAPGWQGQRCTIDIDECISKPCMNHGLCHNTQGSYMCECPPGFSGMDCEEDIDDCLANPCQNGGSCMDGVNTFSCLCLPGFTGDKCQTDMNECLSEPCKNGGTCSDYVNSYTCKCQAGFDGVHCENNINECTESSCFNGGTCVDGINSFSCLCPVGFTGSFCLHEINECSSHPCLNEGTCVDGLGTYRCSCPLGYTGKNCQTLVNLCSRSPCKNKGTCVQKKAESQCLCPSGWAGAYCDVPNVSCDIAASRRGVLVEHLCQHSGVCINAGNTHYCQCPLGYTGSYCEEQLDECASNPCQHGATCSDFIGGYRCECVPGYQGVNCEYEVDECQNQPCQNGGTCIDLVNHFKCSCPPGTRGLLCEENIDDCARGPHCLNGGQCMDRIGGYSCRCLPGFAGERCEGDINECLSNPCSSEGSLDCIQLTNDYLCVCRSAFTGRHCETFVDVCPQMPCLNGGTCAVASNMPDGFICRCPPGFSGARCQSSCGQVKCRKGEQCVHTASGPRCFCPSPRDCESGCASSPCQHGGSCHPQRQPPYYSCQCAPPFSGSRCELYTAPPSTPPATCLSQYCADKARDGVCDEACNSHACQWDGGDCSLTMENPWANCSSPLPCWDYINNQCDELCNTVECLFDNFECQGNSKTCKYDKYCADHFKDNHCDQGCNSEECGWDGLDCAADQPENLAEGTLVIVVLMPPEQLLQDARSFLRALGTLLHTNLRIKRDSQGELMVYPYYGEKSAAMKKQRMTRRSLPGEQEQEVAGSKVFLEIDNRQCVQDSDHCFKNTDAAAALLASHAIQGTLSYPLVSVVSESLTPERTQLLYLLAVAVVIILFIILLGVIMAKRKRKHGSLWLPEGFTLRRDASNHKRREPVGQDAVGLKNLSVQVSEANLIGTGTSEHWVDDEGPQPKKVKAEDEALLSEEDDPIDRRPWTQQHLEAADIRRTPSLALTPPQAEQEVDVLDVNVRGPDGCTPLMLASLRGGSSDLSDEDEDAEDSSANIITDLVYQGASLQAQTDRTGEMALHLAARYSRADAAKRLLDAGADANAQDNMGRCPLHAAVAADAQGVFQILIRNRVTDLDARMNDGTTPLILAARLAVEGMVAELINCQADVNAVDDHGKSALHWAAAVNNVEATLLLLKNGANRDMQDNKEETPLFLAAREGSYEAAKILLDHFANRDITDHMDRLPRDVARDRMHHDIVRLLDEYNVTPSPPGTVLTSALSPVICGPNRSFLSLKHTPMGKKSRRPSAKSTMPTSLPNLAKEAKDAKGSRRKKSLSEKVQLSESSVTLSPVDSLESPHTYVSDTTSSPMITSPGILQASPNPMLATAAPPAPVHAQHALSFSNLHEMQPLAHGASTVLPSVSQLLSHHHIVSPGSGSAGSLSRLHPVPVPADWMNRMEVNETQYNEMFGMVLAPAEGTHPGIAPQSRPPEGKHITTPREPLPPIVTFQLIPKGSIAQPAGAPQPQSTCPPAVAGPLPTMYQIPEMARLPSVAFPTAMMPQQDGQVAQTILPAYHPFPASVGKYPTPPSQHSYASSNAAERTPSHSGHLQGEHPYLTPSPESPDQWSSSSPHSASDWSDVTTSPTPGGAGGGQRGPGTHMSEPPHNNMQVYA
UniProt P78504, residues 34-1067: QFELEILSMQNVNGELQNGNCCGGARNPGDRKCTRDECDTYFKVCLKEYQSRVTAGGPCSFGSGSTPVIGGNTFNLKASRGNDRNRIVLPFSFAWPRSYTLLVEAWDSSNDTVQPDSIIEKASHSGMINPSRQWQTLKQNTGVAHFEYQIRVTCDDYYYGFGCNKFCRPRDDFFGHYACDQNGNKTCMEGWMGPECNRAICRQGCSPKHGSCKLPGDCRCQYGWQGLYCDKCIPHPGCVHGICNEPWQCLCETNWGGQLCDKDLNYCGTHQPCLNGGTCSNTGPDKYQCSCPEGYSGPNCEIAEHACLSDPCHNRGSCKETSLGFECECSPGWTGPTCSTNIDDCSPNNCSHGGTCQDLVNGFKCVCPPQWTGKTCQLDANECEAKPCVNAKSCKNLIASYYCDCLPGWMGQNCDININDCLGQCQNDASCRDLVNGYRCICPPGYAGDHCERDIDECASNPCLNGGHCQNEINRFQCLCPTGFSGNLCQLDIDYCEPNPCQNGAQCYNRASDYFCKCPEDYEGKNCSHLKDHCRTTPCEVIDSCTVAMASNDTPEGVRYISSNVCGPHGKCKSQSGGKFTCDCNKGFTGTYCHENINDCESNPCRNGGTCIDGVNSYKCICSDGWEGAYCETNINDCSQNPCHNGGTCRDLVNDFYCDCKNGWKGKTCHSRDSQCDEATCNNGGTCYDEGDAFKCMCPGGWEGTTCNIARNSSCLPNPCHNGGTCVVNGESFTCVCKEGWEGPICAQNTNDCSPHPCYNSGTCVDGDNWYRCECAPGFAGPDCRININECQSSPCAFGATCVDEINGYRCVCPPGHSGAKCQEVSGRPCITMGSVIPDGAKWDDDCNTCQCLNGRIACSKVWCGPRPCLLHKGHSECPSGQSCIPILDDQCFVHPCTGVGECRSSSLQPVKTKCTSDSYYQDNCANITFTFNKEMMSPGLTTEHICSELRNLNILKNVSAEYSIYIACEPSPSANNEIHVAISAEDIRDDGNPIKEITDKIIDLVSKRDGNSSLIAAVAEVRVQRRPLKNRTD

Target: human Notch2, full length, on transfected cells (human) (UniProt Q04721)
Experiment: FACS: hJAG1-rb Fc preclustered with PE donkey anti-rabbit on hNotch2 stably transfected 293 cells

hJAG1-rb Fc (from UniProt P78504 34-1067) (Fc fusion)
binding: binds
